Measured values from paper PMC8724738, “Exon‐independent recruitment of SRSF1 is mediated by U1 snRNP stem‐loop 3”.
The exact form of at least one protein or probe is not confirmed. At least one verdict rests on a figure or table, not on a statement of the authors.

Amino acid sequences for entries named in this document (tags omitted). Residues count along the entry.
UniProt Q07955, 1-197, stated change not applied: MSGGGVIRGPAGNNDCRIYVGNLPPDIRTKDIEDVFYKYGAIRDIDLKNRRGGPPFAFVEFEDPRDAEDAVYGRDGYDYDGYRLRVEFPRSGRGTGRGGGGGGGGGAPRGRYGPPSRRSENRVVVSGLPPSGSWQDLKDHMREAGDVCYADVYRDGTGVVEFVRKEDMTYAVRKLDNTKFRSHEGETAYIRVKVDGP

Target: SRSF1ΔRS del198-248 (UniProt Q07955)
Assay: NMR
Details: NMR/ITC: 10 mM NaPO4 pH 7.0, 50 mM L-Arg, 50 mM L-Glu, 5 mM DTT (TCEP for ITC); NMR 313 K (FUS 30 C), ITC 27 C; recombinant protein; residues 1-197

Sequence: UCAGAGGA [ssRNA UCAGAGGA]
- binding result: binds
